Reference: the supplement of paper PMC12823440, “Inhibitors supercharge kinase turnover through native proteolytic circuits” (Nature, 2025)
Where a name gives a salt, the structure may show the parent alone. The list shows a part of the results. Hit calls seldom repeat between salt and free forms of one compound.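 Kinases, fused to nanoluciferase, were expressed in K562 cells; luminescence was measured every 4 h from 2 to 18 h as percent of control (DMSO = 100%, positive control = 0%). A time point is decreased if signal falls significantly (2 sigma). Hits were called by the authors by a rule that is not shown; the count of time points alone does not decide it.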

By UniProt entry, the sequences of proteins in these tests, tags left out. Where a name states a change or a piece, a line headed by the entry shows the natural chain unless it says otherwise.
UniProt O15530: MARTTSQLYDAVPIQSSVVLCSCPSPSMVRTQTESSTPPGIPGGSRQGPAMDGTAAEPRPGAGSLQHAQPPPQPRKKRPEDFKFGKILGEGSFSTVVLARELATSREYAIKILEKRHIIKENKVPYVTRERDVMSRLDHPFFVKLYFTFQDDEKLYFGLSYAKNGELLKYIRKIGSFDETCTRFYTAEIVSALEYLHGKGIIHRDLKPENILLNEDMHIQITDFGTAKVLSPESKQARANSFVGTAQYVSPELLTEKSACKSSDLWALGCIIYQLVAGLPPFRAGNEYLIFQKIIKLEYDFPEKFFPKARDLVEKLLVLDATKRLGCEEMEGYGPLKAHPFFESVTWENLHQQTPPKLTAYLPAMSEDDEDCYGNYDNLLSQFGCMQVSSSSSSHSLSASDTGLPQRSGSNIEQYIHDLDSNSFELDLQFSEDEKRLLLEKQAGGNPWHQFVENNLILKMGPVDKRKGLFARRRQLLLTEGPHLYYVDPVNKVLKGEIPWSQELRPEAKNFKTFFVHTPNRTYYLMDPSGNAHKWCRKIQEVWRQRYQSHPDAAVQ
UniProt P42356, whole entry, looked up: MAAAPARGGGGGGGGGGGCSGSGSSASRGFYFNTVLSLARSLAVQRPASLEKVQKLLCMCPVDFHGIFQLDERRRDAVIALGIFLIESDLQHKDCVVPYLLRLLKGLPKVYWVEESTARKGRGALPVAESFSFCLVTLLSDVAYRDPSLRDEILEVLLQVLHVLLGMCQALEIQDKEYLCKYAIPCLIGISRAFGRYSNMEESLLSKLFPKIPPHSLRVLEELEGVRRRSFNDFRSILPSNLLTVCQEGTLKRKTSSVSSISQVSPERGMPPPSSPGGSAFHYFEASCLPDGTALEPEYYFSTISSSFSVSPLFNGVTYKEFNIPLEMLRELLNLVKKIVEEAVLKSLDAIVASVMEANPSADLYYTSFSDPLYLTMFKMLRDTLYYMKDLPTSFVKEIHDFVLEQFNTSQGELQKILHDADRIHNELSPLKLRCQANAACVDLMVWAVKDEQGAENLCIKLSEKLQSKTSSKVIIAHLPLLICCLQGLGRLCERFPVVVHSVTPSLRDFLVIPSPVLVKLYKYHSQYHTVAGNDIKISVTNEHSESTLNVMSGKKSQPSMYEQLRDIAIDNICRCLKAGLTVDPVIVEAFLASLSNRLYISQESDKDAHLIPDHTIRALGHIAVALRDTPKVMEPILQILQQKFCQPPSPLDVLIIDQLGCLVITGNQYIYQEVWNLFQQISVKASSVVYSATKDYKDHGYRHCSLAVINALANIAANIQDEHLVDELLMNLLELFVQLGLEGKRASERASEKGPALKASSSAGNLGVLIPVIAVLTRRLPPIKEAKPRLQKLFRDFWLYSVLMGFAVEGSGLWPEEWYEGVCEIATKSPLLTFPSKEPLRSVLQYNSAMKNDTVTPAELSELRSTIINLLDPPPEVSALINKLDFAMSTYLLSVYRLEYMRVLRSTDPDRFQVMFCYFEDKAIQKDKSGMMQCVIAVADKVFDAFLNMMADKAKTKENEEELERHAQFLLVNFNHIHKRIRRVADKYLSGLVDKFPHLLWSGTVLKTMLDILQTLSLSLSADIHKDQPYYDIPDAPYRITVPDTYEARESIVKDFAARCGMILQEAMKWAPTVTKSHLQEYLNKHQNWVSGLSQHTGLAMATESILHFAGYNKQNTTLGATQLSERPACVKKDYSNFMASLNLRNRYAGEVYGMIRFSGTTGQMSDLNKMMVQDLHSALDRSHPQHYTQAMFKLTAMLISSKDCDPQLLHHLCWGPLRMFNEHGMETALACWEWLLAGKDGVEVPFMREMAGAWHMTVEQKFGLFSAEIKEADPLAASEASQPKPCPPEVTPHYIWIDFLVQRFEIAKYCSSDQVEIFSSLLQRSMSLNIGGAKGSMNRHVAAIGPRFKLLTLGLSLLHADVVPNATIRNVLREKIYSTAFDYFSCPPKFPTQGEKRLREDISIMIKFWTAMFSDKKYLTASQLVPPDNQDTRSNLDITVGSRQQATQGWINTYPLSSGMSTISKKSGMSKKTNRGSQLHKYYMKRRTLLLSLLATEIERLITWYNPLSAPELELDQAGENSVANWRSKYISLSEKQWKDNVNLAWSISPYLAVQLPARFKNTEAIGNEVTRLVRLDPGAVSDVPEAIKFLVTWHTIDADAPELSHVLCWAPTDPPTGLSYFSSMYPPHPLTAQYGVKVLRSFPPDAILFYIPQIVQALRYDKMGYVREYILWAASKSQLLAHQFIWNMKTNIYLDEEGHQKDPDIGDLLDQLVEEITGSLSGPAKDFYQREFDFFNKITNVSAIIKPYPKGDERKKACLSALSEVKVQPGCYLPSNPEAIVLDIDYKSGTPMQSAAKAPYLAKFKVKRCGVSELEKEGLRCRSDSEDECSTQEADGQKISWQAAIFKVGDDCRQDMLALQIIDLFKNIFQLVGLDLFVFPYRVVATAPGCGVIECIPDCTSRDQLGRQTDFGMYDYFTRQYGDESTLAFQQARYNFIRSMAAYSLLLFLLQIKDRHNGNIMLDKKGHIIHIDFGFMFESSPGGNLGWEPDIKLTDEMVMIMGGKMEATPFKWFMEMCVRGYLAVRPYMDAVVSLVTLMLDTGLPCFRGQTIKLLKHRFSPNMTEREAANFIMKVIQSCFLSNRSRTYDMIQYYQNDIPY
UniProt Q05397, whole entry, looked up: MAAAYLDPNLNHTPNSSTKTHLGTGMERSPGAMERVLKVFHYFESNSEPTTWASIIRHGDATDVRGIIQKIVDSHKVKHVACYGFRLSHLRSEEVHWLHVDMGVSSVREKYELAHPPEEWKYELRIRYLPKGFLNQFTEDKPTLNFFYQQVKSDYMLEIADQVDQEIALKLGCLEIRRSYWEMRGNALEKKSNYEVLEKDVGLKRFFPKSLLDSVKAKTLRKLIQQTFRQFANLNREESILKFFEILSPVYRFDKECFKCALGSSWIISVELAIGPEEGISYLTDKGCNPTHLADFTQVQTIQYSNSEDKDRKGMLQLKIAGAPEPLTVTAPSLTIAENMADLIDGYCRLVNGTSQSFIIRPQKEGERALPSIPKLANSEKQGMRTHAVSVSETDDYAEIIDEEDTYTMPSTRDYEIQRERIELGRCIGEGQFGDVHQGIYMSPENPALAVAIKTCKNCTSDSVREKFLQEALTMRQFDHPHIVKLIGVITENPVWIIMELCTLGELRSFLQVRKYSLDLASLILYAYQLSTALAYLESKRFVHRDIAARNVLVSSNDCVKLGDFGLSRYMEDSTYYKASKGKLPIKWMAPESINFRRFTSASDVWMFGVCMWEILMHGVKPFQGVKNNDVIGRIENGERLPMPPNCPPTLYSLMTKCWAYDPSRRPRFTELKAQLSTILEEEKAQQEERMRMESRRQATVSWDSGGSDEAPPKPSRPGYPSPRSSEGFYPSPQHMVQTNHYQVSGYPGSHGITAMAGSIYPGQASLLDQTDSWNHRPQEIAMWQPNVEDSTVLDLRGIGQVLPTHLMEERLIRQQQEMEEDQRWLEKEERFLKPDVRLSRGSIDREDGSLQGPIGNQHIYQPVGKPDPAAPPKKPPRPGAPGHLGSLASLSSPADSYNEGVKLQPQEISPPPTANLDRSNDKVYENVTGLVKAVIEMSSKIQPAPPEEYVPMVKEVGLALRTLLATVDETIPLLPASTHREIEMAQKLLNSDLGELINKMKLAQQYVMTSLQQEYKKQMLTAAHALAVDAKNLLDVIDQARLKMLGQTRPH
UniProt P07949, whole entry, looked up: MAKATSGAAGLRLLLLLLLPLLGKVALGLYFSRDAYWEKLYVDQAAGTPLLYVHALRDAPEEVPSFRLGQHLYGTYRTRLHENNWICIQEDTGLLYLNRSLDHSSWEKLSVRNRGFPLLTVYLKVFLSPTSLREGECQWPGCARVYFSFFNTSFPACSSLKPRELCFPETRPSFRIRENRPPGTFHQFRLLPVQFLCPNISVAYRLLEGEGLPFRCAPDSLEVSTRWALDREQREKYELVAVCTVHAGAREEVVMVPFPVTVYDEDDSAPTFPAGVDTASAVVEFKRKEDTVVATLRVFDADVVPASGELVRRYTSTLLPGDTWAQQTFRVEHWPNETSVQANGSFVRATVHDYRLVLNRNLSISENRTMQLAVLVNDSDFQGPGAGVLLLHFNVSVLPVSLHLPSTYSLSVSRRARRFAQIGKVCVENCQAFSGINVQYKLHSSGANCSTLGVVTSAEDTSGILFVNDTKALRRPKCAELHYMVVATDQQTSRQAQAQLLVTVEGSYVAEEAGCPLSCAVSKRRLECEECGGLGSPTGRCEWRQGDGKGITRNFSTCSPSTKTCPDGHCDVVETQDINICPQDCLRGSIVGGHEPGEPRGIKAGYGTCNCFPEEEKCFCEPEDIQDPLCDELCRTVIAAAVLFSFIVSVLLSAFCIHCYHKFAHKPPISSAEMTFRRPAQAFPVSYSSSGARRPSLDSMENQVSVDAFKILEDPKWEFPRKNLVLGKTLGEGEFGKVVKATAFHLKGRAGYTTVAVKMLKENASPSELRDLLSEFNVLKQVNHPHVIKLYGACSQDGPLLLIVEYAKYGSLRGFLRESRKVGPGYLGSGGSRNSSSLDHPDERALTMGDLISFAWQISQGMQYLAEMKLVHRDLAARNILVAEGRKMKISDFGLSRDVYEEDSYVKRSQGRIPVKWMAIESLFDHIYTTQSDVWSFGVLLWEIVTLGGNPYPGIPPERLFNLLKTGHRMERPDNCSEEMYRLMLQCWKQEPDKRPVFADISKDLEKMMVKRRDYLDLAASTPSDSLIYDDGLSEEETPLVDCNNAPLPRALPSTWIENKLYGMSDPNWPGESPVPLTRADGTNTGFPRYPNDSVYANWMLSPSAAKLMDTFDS
UniProt P07949, whole entry M918T, looked up: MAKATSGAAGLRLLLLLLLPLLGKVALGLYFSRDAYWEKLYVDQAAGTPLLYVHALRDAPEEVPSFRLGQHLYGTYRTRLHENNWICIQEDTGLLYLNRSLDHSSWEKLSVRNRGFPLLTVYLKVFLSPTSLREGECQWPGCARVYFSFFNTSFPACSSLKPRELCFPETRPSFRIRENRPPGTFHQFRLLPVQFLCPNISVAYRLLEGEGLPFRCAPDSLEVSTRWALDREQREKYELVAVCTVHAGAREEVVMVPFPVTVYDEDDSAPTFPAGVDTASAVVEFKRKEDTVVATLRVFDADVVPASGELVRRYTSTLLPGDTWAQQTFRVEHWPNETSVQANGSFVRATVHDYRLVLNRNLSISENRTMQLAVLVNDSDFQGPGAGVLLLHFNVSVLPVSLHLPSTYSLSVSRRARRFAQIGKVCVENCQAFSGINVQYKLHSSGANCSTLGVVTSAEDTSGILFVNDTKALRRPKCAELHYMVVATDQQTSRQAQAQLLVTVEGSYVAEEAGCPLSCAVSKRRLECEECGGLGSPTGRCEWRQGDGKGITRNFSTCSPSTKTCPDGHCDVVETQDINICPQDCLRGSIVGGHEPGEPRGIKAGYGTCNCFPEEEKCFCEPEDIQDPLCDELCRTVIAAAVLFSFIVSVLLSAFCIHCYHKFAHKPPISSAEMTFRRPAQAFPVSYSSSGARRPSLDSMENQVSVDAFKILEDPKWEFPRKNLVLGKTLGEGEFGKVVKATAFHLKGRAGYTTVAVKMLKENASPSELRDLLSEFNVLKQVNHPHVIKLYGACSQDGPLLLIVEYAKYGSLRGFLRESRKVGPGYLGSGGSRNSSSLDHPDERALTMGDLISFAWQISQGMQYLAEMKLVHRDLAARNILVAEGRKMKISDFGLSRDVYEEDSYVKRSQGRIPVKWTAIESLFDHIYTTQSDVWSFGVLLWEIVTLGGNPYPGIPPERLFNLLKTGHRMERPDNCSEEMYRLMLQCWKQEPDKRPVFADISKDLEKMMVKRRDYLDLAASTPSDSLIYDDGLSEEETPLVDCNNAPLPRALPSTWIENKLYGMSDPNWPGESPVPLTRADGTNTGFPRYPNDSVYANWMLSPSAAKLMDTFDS
UniProt Q9BRS2: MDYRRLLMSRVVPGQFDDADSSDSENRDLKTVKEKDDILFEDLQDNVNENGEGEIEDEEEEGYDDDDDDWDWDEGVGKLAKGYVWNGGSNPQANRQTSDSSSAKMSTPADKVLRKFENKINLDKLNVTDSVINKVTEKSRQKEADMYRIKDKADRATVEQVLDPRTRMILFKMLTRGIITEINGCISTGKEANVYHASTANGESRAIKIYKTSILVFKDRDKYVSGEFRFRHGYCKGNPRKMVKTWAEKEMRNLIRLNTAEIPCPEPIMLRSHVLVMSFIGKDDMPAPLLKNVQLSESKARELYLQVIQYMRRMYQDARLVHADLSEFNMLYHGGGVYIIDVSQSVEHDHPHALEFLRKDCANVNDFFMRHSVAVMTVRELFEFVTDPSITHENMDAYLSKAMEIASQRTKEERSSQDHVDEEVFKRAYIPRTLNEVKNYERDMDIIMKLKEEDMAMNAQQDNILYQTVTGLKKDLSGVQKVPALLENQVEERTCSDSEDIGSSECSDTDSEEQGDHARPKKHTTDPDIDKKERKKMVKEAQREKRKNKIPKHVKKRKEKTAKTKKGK

Columns and labels:
Assay in all cases: number of time points (of 5) at which kinase-Nluc abundance scored as decreased, DMSO-normalised (count); higher = more persistent destabilization
Conditions in all cases: K562; 2-18 h
[1] = target: NTRK3 (UniProt Q16288)
[2] = target: PAK4 (UniProt O96013)
[3] = target: PBK (UniProt Q96KB5)
[4] = target: PDGFRB (UniProt P09619)
[5] = target: PDK1 (UniProt Q15118)
[6] = target: PDPK1 (UniProt O15530)
[7] = target: PIK4CA (UniProt P42356)
[8] = target: PIK4CB (UniProt Q9UBF8)
[9] = target: PLK1 (UniProt P53350)
[10] = target: PRKAA1 (UniProt Q13131)
[11] = target: PRKCA (UniProt P17252)
[12] = target: PTK2 (UniProt Q05397)
[13] = target: PTK2B (UniProt Q14289)
[14] = target: RAF1 (UniProt P04049)
[15] = target: RAF1_S257L (clone: RAF1_mut) (UniProt P04049)
[16] = target: RET (UniProt P07949)
[17] = target: RET_M918T (clone: RET_mut) (UniProt P07949)
[18] = target: RIOK1 (UniProt Q9BRS2)
[19] = target: RIPK1 (UniProt Q13546)
[20] = target: RIPK2 (UniProt O43353)

Row | SMILES | number of time points [1] | number of time points [2] | number of time points [3] | number of time points [4] | number of time points [5] | number of time points [6] | number of time points [7] | number of time points [8] | number of time points [9] | number of time points [10] | number of time points [11] | number of time points [12] | number of time points [13] | number of time points [14] | number of time points [15] | number of time points [16] | number of time points [17] | number of time points [18] | number of time points [19] | number of time points [20]
1 | Cc1cc(/C=C2\CC/C(=C\c3cc(C)c(O)c(C)c3)C2=O)cc(C)c1O [Pentagamavunon-1] (2.5 µM) | 0 | 0 | 0 | 0 | 0 | 0 | 2 | 0 | 0 | 0 | 0 | 0 | 0 | 0 | 0 | 0 | 0 | 0 | 0 | 0
2 | CC(C)n1cnnc1-c1cccc(NC(=O)c2cc3ccc(F)cc3[nH]2)n1 (2.5 µM) | 3 | 0 | 0 | 2 | 0 | 4 | 0 | 2 | 0 | 2 | 0 | 2 | 0 | 3 | 4 | 3 | 3 | 3 | 3 | 4
3 | CC(=O)Nc1nc(C)c(-c2cc3c(c(S(C)(=O)=O)c2)C(=O)N([C@@H](C)C2CC2)C3)s1 (2.5 µM) | 0 | 0 | 0 | 0 | 0 | 0 | 0 | 0 | 0 | 0 | 0 | 0 | 0 | 0 | 0 | 0 | 0 | 0 | 0 | 0
4 | Cn1cc(-c2ccc3nnc(Sc4ccc5nn(C)cc5c4)n3n2)cn1 [c-Met inhibitor 1] (10 µM) | 0 | 0 | 0 | 0 | 0 | 0 | 0 | 0 | 0 | 0 | 0 | 0 | 0 | 0 | 0 | 0 | 0 | 0 | 0 | 0
5 | COc1cc(Nc2nc3ccccc3nc2NS(=O)(=O)c2ccc(NC(=O)c3ccc(C)c(OC)c3)cc2)cc(OC)c1 (10 µM) | 0 | 0 | 0 | 0 | 0 | 0 | 0 | 0 | 0 | 0 | 0 | 0 | 0 | 0 | 0 | 0 | 0 | 0 | 0 | 0
6 | CC(C)c1cnn2c(NCc3ccccc3)cc(NCCCCCCN)nc12 [BS-181 (hydrochloride)] (10 µM) | 0 | 0 | 0 | 0 | 0 | 0 | 0 | 0 | 0 | 0 | 0 | 0 | 0 | 0 | 0 | 0 | 0 | 0 | 0 | 0
7 | Cc1ncc(F)c(Nc2n[nH]c3c2CN(C(=O)N2C[C@@H](C)N(CC4CCOCC4)C[C@@H]2C)C3(C)C)n1 (10 µM) | 0 | 0 | 0 | 0 | 0 | 0 | 0 | 0 | 0 | 0 | 0 | 0 | 0 | 0 | 0 | 0 | 0 | 0 | 0 | 0
8 | O=C(N/N=C/c1ccc([N+](=O)[O-])o1)c1ccc(O)cc1 [Nifuroxazide] (10 µM) | 3 | 0 | 0 | 2 | 0 | 2 | 3 | 2 | 0 | 1 | 0 | 0 | 0 | 1 | 2 | 1 | 2 | 2 | 2 | 3
9 | Cc1c(C(=O)Nc2ccc(Oc3ccnc4cc(OCC(C)(C)O)ccc34)c(F)c2)c(=O)n(-c2ccccc2)n1C [Ningetinib Tosylate] (10 µM) | 1 | 0 | 0 | 3 | 0 | 3 | 0 | 0 | 0 | 0 | 0 | 2 | 0 | 2 | 2 | 0 | 0 | 0 | 0 | 0
10 | COc1ccc(COc2cc3oc(=O)c4cc(C(C)O)ccc4c3cc2OC)cc1 (stereo not given) [Palomid 529] (2.5 µM) | 0 | 0 | 0 | 0 | 0 | 0 | 0 | 0 | 0 | 0 | 0 | 0 | 0 | 0 | 0 | 0 | 0 | 0 | 0 | 0
11 | Cc1cc([N+](=O)[O-])c(NS(=O)(=O)c2cccc(C(=O)O)c2)cc1-c1cccnc1 [Alofanib] (10 µM) | 0 | 0 | 0 | 0 | 0 | 0 | 0 | 0 | 0 | 0 | 0 | 0 | 0 | 0 | 0 | 0 | 0 | 0 | 0 | 0
12 | Cn1sc(=O)n(Cc2ccccc2)c1=O (10 µM) | 0 | 0 | 0 | 0 | 0 | 0 | 0 | 0 | 0 | 0 | 0 | 0 | 0 | 0 | 0 | 0 | 0 | 0 | 0 | 0
13 | CCCCNc1ncc2c(-c3ccc(CN4CCN(C)CC4)cc3)cn([C@H]3CC[C@H](O)CC3)c2n1 [UNC2025 (hydrochloride)] (2.5 µM) | 2 | 0 | 0 | 1 | 0 | 0 | 0 | 1 | 0 | 0 | 0 | 1 | 0 | 0 | 0 | 0 | 0 | 1 | 1 | 0
14 | C[C@H](Nc1ccc2c(c1)OCCn1cc(N3C(=O)OC[C@H]3C(F)F)nc1-2)C(N)=O (10 µM) | 0 | 0 | 0 | 0 | 0 | 0 | 0 | 0 | 0 | 0 | 0 | 0 | 0 | 0 | 0 | 0 | 0 | 0 | 0 | 0
15 | C[C@@H]1CN(CC(=O)Nc2ccc3c(c2)Cc2cccc(-c4cc(=O)cc(N5CCOCC5)o4)c2S3)C[C@H](C)O1 (2.5 µM) | 0 | 0 | 0 | 0 | 0 | 0 | 0 | 0 | 0 | 0 | 0 | 0 | 0 | 0 | 0 | 0 | 0 | 0 | 0 | 0
16 | COc1ccc2c(c1)C[C@H](C(=O)Nc1ccc(-c3cn[nH]c3)cc1OCCN(C)C)CO2 [Chroman 1] (10 µM) | 0 | 0 | 0 | 0 | 0 | 0 | 0 | 0 | 0 | 0 | 0 | 0 | 0 | 0 | 0 | 0 | 0 | 0 | 0 | 0
17 | NC(=O)c1cccc2c(N[C@H](CN3CCC3)c3ccc(Cl)c(C(F)(F)F)c3)ncnc12 (10 µM) | 0 | 0 | 0 | 0 | 0 | 0 | 0 | 0 | 0 | 0 | 0 | 0 | 0 | 0 | 0 | 0 | 0 | 0 | 0 | 0
18 | COc1cc(-c2cnc(N)c(-c3ccc(NC(=O)c4cn(CC5CCOCC5)cc(-c5ccc(C)cn5)c4=O)cc3F)c2)ccc1OC[C@H]1COCCO1 [DS-1205b (free base)] (10 µM) | 0 | 0 | 0 | 0 | 0 | 0 | 0 | 0 | 0 | 0 | 0 | 0 | 0 | 0 | 0 | 0 | 0 | 0 | 0 | 0
19 | CNC(=O)c1c(C)oc2cc(Oc3ncnc4cc(OC)c(OC)cc34)ccc12 [Fruquintinib] (10 µM) | 0 | 0 | 0 | 0 | 0 | 0 | 0 | 0 | 0 | 0 | 0 | 0 | 0 | 0 | 0 | 0 | 0 | 0 | 0 | 0
20 | Cc1ccc(Nc2c(C(N)=O)cnc3cc(-c4ccncc4)ccc23)cc1C [cFMS Receptor Inhibitor II] (10 µM) | 0 | 0 | 0 | 0 | 0 | 0 | 0 | 0 | 0 | 0 | 0 | 0 | 0 | 0 | 0 | 0 | 0 | 0 | 0 | 0
21 | C[C@H]1CNC(=O)c2cnn3ccc(nc23)N[C@H](C)c2cc(F)ccc2O1 [Repotrectinib] (2.5 µM) | 1 | 1 | 0 | 0 | 0 | 4 | 2 | 1 | 2 | 1 | 0 | 1 | 0 | 1 | 3 | 0 | 1 | 2 | 2 | 1
22 | CCN1C(C)(C)CC(Oc2ccc(C(=O)Nc3ccc(NC(=O)Nc4cc(C(C)(C)C)on4)cc3)nc2)CC1(C)C (10 µM) | 0 | 0 | 0 | 0 | 0 | 0 | 0 | 0 | 0 | 0 | 0 | 0 | 0 | 0 | 0 | 0 | 0 | 0 | 0 | 0
23 | CNS(=O)(=O)C[C@H]1CC[C@H](N(C)c2[nH]cnc3nccc2-3)CC1 [Oclacitinib (maleate)] (10 µM) | 0 | 0 | 0 | 0 | 0 | 0 | 0 | 0 | 0 | 0 | 0 | 0 | 0 | 0 | 0 | 0 | 0 | 0 | 0 | 0
24 | C[C@@H](Nc1cc(F)cc(F)c1)c1cc(C(=O)N(C)C)cc2c(=O)cc(N3CCOCC3)oc12 (10 µM) | 0 | 0 | 0 | 0 | 0 | 0 | 0 | 0 | 0 | 0 | 0 | 0 | 0 | 0 | 5 | 0 | 0 | 0 | 0 | 0

Rewritten with tabs: part of the list above.
Row	SMILES	number of time points [1]	number of time points [2]	number of time points [3]	number of time points [4]	number of time points [5]	number of time points [6]	number of time points [7]	number of time points [8]	number of time points [9]	number of time points [10]	number of time points [11]	number of time points [12]	number of time points [13]	number of time points [14]	number of time points [15]	number of time points [16]	number of time points [17]	number of time points [18]	number of time points [19]	number of time points [20]
1	Cc1cc(/C=C2\CC/C(=C\c3cc(C)c(O)c(C)c3)C2=O)cc(C)c1O [Pentagamavunon-1] (2.5 µM)	0	0	0	0	0	0	2	0	0	0	0	0	0	0	0	0	0	0	0	0
2	CC(C)n1cnnc1-c1cccc(NC(=O)c2cc3ccc(F)cc3[nH]2)n1 (2.5 µM)	3	0	0	2	0	4	0	2	0	2	0	2	0	3	4	3	3	3	3	4
